Experimental data: PubChem BioAssay AID1259254 (NCATS, 2017)
Test: 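Genome-wide screen for genes that prevent DNA re-replication in cancer cells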 (primary screen). Cells: human HCT116 colorectal cancer cells. Reagents: single siRNA against human genes. Timing: 3 days. Detection: 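Nuclei stained with Hoechst and imaged; cell-cycle phase assigned by DNA content; G2 share scaled per plate, non-targeting siRNA 0%, GMNN siRNA 100%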. Direction: G2 robust z-score: higher = more G2 cells, more excess DNA replication. Hit rule: 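An siRNA counts as active if its G2 robust z-score lies at least 5 MADs above the screen median; here such calls match roughly 38% of GMNN control or more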.
Here is one part, drawn at random, of about 59,000 reagents. In the full data, about 1,550 (2.6%) were called active. 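G2 share is only a proxy for re-replication; each gene was hit by three separate siRNAs, and active genes were retested.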 Unmarked entries are inactive. The numbers tell different reagents against one gene apart. Not all columns of the deposit are shown. Reagent sequences are not shown. Not given: the amount of reagent.

target gene | reagent no. | G2 robust z-score
TERB1 | 1 | -0.511
TERB1 | 2 | -0.441
TERB1 | 3 | 0.718
TACC3 | 1 | 1.67
TACC3 | 2 | -0.314
TACC3 | 3 | 3.17
UTP14C | 1 | -1.12
UTP14C | 2 | -0.28
UTP14C | 3 | -0.746
CALM2 | 1 | 4.28
CALM2 | 2 | 1.71
CALM2 | 3 | 0.14
TRIM51 | 1 | 0.326
TRIM51 | 2 | -1.34
TRIM51 | 3 | 0.69
ANKRD60 | 1 | -0.686
ANKRD60 | 2 | 0.15
ANKRD60 | 3 | -0.335
PIGG | 1 | -0.141
PIGG | 2 | 0.128
PIGG | 3 | 1.33
ANP32B | 1 | 0.391
ANP32B | 2 | -1.06
ANP32B | 3 | -0.722
MKNK2 | 1 | -0.0964
MKNK2 | 2 | -1.24
MKNK2 | 3 | 0.375
H2AC6 | 1 | 2.55
H2AC6 | 2 | -0.634
H2AC6 | 3 | 6.35 (active)
TEX44 | 1 | -0.463
TEX44 | 2 | 0.362
TEX44 | 3 | 0.926
KPNA2 | 1 | -0.0867
KPNA2 | 2 | 6.82 (active)
KPNA2 | 3 | 0.41
MINDY2 | 1 | 0.742
MINDY2 | 2 | -0.329
MINDY2 | 3 | -0.681
POM121L12 | 1 | 1.01
POM121L12 | 2 | -0.791
POM121L12 | 3 | 0.0107

Targets listed so far whose target name begins with U or u:
target gene | reagent no. | G2 robust z-score
UTP14C | 1 | -1.12
UTP14C | 2 | -0.28
UTP14C | 3 | -0.746

The listing continues.
target gene | reagent no. | G2 robust z-score
SHCBP1 | 1 | 0.718
SHCBP1 | 2 | -0.409
SHCBP1 | 3 | -1.46
WBP2P1 | 1 | 0.372
WBP2P1 | 2 | -0.599
WBP2P1 | 3 | -1.22
OR4N4 | 1 | 0.116
OR4N4 | 2 | 1.69
OR4N4 | 3 | 0.976
SLC10A3 | 1 | 0.479
SLC10A3 | 2 | -0.255
SLC10A3 | 3 | 6.82 (active)
LRRC37B | 1 | 0.337
LRRC37B | 2 | -0.573
LRRC37B | 3 | 1.33
P4HA2 | 1 | 4.83
P4HA2 | 2 | 2.61
P4HA2 | 3 | -0.765
SLCO1B1 | 1 | -0.35
SLCO1B1 | 2 | 0.0733
SLCO1B1 | 3 | 3.68
CYP2C9 | 1 | -0.204
CYP2C9 | 2 | 2.68
CYP2C9 | 3 | -0.392
TMEM128 | 1 | -0.265
TMEM128 | 2 | 0.877
TMEM128 | 3 | 3.07
